Tested on: VSMCs
Experiment: Whole genome microarray analysis (Illumina HumanHT-12 v4) of cultured VSMCs treated with progestins
Format: cell-based, human
Conditions: for genes regulated solely by this progestin / Down-regulated genes / Total regulated genes / Up-related genes: number of genes; for genes regulated solely by this progestin: Venn diagram of MPA, ETO, P4; for Down-regulated genes / Total regulated genes / Up-related genes: 10^−7 M, fold-change >1.25 and P<0.05
Text: Cultured VSMCs (n=3) treated with control medium or medium containing medroxyprogesterone acetate (MPA, 10^−7 M), or etonogestrel (ETO, 10^−7 M) were processed for whole genome analyses using Illumina Human microarray kit. After qRT-PCR confirmation of several up and down regulated genes from microarray data, Ingenuity Pathway Analysis (IPA) determined relevant upstream signaling of LAPC altered gene expression. To investigate the role of genes and relevant signaling molecules identified by IPA, VSMCs (n=3) treated with MPA or ETO±1 or 10 ng/ml recombinant CCL2 (rCCL2)±STAT1 inhibitor, 5′-methyl-thioadenosine (MTA, 100 μM) were analyzed by BrdU incorporation proliferation, TUNEL based ELISA apoptosis and Transwell insert migration assays.
VSMCs were thawed and cultured in medium 231 (M231; Life Technologies) with smooth muscle growth supplement (5% FBS; 2 ng/mL human basic fibroblast growth factor, 0.5 ng/mL human epidermal growth factor, 5 ng/mL heparin, 0.2 μg/mL insulin and 5 μg/mL BSA; Life Technologies) with 100 U/mL penicillin, 100 μg/mL streptomycin, 0.25 μg/mL fungizone. Confluent VSMCs were washed twice with 1×PBS to remove residual serum, passaged in 96-well or 6-well plates and incubated in parallel in M231 with 1% charcoal striped FBS with 0.1% ethanol (vehicle, control) or 10^−7 M MPA (Sigma-Aldrich) or 10^−7 M ETO (Organon) or 10^−7 M P4 (Sigma-Aldrich) for 15 min, 6, 48, and 72 h. VSMCs were then washed with ice-cold PBS and stored at −80° C. for further RNA and protein analyses.
Total RNA was isolated using Qiagen miRNeasy Mini Kit (Qiagen) and RNeasy MinElute Cleanup Kit (Qiagen). The quality of isolated RNAs was confirmed using an Agilent 2100 Bioanalyzer. Microarray analysis was limited to those specimens in which RNA Integrity Number exceeded 8. Microarray processes were performed in the Keck Biotechnology Resource Laboratory at Yale University (New Haven, Conn.) using Illumina Human HT-12 v4 BeadChip (Illumina). Raw data without normalization were analyzed by GeneSpring GX12.5 software (Agilent Technologies-Silicon Genetics). Normalization was performed as described (35). Genes with a fold-change >1.25 and a P value<0.05 were considered differentially expressed. Ingenuity Pathway Analysis (IPA) software (Qiagen) explored molecular and biological networks related to differentially expressed genes.

## CC(=O)O[C@]1(C(C)=O)CC[C@H]2[C@@H]3C[C@H](C)C4=CC(=O)CC[C@]4(C)[C@H]3CC[C@@]21C [MPA, medroxyprogesterone acetate]
Cultured VSMCs
  share of differentially regulated genes that are down-regulated: 51%
  share of differentially regulated genes that are up-regulated: 49%
  Down-regulated genes: 401
  Total regulated genes: 793
  Up-related genes: 392
  genes regulated solely by this progestin: 612

## CC(=O)[C@H]1CC[C@H]2[C@@H]3CCC4=CC(=O)CC[C@]4(C)[C@H]3CC[C@]12C [P4, progesterone]
Cultured VSMCs
  share of differentially regulated genes that are down-regulated: 55%
  share of differentially regulated genes that are up-regulated: 45%
  Down-regulated genes: 22
  Total regulated genes: 40
  Up-related genes: 18
  genes regulated solely by this progestin: 16

## C#C[C@]1(O)CC[C@H]2[C@@H]3CCC4=CC(=O)CC[C@@H]4[C@H]3C(=C)C[C@@]21CC [ETO, etonogestrel]
Cultured VSMCs
  ETO-regulated genes also regulated by MPA (same directional change): 92%
  ETO-regulated genes also regulated by MPA (same directional change), number: 175
  share of differentially regulated genes that are down-regulated: 57%
  share of differentially regulated genes that are up-regulated: 43%
  Down-regulated genes: 109
  Total regulated genes: 191
  Up-related genes: 82
  genes regulated solely by this progestin: 13

Source: US20180078615A1, “USE OF CCL2 TO INHIBIT ABNORMAL UTERINE BLEEDING” (UNIVERSITY OF SOUTH FLORIDA, priority 2015, published 2018)
